Assay results

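Luminescence from an EWS-FLI1 target-promoter (NR0B1) reporter, set against a CMV-promoter reporter, two days after silencing single genes in TC32 Ewing sarcoma cells. Each siRNA was applied at 20 nM. A z-score of the log NR0B1-over-CMV signal, less the median of siRNAs with the same seed; more negative means a stronger specific loss of the NR0B1 reporter.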

The strongest results of the screen are mostly left out here. Sequences are the guide (antisense) strand, without overhang.

{"sirna": "AUUGUUAUGUUUGUGAGUG", "target gene": "FKBP14", "seed-corrected z-score": "1.381"}
{"sirna": "UAUCUUGAUAUGAUGCUAG", "target gene": "MTERF1", "seed-corrected z-score": "0.2378"}
{"sirna": "UUCCUUGCGACUGAAGGAC", "target gene": "UBE2QL1", "seed-corrected z-score": "-0.1373"}
{"sirna": "UUGCCUUCGGCGGAAAUCC", "target gene": "CCDC154", "seed-corrected z-score": "-1.273"}
{"sirna": "UCCUCUUCCAGAUAGGUCC", "target gene": "ITPKC", "seed-corrected z-score": "0.2633"}
{"sirna": "ACAAAUUAGACCUUGUUCC", "target gene": "CAV3", "seed-corrected z-score": "0.05469"}
{"sirna": "UUGUAUUCAGUGACAGAGC", "target gene": "MPI", "seed-corrected z-score": "-0.9941"}
{"sirna": "UGACCACAAAGUUACAGGC", "target gene": "TMC3", "seed-corrected z-score": "1.054"}
{"sirna": "UCACAAAUCAGGGAUACUC", "target gene": "FUOM", "seed-corrected z-score": "0.1779"}
{"sirna": "UUGGAGUUCAGUUUGAAGG", "target gene": "ASL", "seed-corrected z-score": "0.1043"}
{"sirna": "UGAGAUAAGAGAUACUAGC", "target gene": "SLC18A2", "seed-corrected z-score": "0.3335"}
{"sirna": "UUGGUUUCUCCAGUAGGAG", "target gene": "ACRBP", "seed-corrected z-score": "-0.5567"}
{"sirna": "UUACCUGUUGCAUCAAUGG", "target gene": "USO1", "seed-corrected z-score": "-0.8045"}
{"sirna": "UUUCCGUGAAACAAUCUCC", "target gene": "TBC1D23", "seed-corrected z-score": "0.06712"}
{"sirna": "UCAUCCACCAUCUUUAGAG", "target gene": "HPSE", "seed-corrected z-score": "0.5669"}
{"sirna": "UUCUCGUCCACAGUCUUAG", "target gene": "SBF1", "seed-corrected z-score": "-0.1136"}
{"sirna": "AAACAGAUCUCAUCGUUUC", "target gene": "PDHA2", "seed-corrected z-score": "0.005524"}
{"sirna": "AUAGUUCAUACAUGUCUCC", "target gene": "RMDN2", "seed-corrected z-score": "0.5105"}
{"sirna": "UGAACUCCAAGACUCCUGG", "target gene": "CPLX3", "seed-corrected z-score": "0.1454"}
{"sirna": "UGUGGGAUCACAGUAGCCC", "target gene": "MAP1LC3BP1", "seed-corrected z-score": "-1.86"}
{"sirna": "UAGGUUUCAAAAAGCUACC", "target gene": "TIGD7", "seed-corrected z-score": "0.5723"}
{"sirna": "UUUCCGAUCUGUAACAGUC", "target gene": "NKIRAS1", "seed-corrected z-score": "0.3476"}
{"sirna": "UUUGAUAUCGCGAUGUACC", "target gene": "MAP3K19", "seed-corrected z-score": "-0.03285"}
{"sirna": "UACGAAGCUUUCAAAGUGC", "target gene": "MICALCL", "seed-corrected z-score": "-1.027"}
{"sirna": "UCAGCUUCGAAUCUGAGGA", "target gene": "SEMA4B", "seed-corrected z-score": "-0.1621"}

The results are deposited in PubChem (AID1159506; NCATS, 2015).